Laboratory results as given in US10668168B2, “Method for removing weakly bound functional moieties from cell targeting conjugates” (priority 2015, dated 2020).
At least one structure is not confirmed: it was looked up by name or label, or the drawing left a doubt.

Legend:
[1] = tested on: NBD-4Py-Lx-trastuzumab conjugate; experiment: Effect of stripping agent concentration and stripping time on released NBD label (fluorescence of supernatant); type: physicochemical; conditions: stripping agent concentration above 10 mM, 37 °C, FIG. 3
[2] = tested on: NBD-4Py-Lx-trastuzumab conjugate; experiment: Stripping efficiency of S- and N-donors: released NBD label from trastuzumab conjugate; type: physicochemical; conditions: agent 10 mM final, 37 °C, 30 minutes stripping
Description: The percentage of released NBD label (excitation and emission wavelength of 485 nm and 535 nm, respectively) was determined spectrophotometrically. The conjugation mixture was precipitated with 2 volume equivalents acetonitrile followed by centrifugation of the formed suspension (5 minutes, 14K rpm). By measuring the fluorescence of the supernatant, the percentage of released NBD label was determined.
NBD-4Py-Lx-Cl (133 microliters, 5 mM in 20 mM NaCl, 20 equiv.) was added to a solution of trastuzumab, used in its commercial formulation, (238 microliters, 21 mg/ml) and HEPES buffer (12.3 microliters, pH 7.47, 20 mM final concentration). The mixture was placed in a THERMOMIXER® at 37° C. for 4 hours, followed by purification using a prewashed PD10 column which was eluted with 0.9% NaCl. The purified conjugate was incubated with PBS or the S and N-donors as listed above (10 mM final concentration) in a THERMOMIXER® at 37° C. for 30 minutes. With size exclusion chromatography conjugation was clearly observed. Furthermore no aggregation was observed. The NBD/mAb ratio of all the conjugates were between 4.0 and 4.2.
The percentage of the released NBD label was determined as described in Example B.

## NC(N)=S [Thiourea, thiourea]
[1]
  stripping time at which released NBD reaches a plateau: 30 min
[2]
  Released label (%): 46.3%
